Data published in patent publication US20030148913A1, “Hard surface cleaners which provide improved fragrance retention properties to hard surfaces” (priority 2001, published 2003).

Test: Fogging measurements on mirror cleaned with aqueous solution (Example 9)
Conditions: for fogging resistance (observation): 0.1% w/v aqueous solution, mirror over steaming water bath at 80° C

Row | Substance | fogging resistance (observation) | level in composition conferring good anti-fogging performance (as little as) (treated surfaces)
1 | C12H5(OC2H4)3(OC3H6)6OH [Dehypon LS36] | Fogging after 2 min | –
2 | C12H25(OC2H4)5(OC3H6)4OH [Dehypon LS54] | Fogging after 2 min | 0.25%
